The assay concerns the target T1, pTAC10-HA (Arabidopsis thaliana) (UniProt F4JF21).
T1 sequence: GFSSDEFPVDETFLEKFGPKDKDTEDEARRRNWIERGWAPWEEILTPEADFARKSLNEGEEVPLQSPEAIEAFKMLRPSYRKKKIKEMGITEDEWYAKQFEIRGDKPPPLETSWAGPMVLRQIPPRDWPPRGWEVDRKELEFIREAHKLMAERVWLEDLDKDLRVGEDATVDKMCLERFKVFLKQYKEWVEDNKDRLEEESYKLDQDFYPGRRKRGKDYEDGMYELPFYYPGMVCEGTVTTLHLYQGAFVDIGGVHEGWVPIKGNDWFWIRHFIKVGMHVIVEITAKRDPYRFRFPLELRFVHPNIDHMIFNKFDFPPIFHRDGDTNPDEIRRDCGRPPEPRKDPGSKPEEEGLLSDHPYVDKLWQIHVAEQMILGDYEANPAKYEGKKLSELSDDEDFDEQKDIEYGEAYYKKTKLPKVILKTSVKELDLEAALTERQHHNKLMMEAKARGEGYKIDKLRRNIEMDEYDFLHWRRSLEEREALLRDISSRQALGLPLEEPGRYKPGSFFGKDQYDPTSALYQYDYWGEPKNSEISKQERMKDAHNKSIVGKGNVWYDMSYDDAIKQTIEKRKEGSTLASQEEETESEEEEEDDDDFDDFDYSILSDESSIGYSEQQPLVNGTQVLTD
As to the kind of experiment: co-IP; protoplasts from 35S::FSD3-GFP or 35S::FSD3S-GFP plants transformed with 35S::pTAC10-HA; HA antibody precipitates, GFP antibody detects; as in Chang et al. (2017) with slight modification.

No constants are given. Whether binding was seen depends on the method and setting. In cells and extracts the contact can be indirect. Some results given as binding are weak or reduced against the parent protein; the word gives no strength. Where a sequence is shown, tags or fusion partners need not be part of it.

B1: FSD3-GFP (protein, UniProt Q9FMX0 42-263)
chain: GGLKVEAYYGLKTPPYPLDALEPYMSRRTLEVHWGKHHRGYVDNLNKQLGKDDRLYGYTMEELIKATYNNGNPLPEFNNAAQVYNHDFFWESMQPGGGDTPQKGVLEQIDKDFGSFTNFREKFTNAALTQFGSGWVWLVLKREERRLEVVKTSNAINPLVWDDIPIICVDVWEHSYYLDYKNDRAKYINTFLNHLVSWNAAMSRMARAEAFVNLGEPNIPIA
Consider B1, for which the binding result is on record as “binds”.

The values are drawn from paper PMC6882211.
